Results are given in words; binding and its absence hold for the method and conditions named. Binding seen in cells or lysates may run through a third protein. A yes stands for co-enrichment or nearness to the bait. Other partners may have been found.

One experiment deals with 3×FLAG-KDM3A. The experiment in a line: affinity purification with mass spectrometry.
For the next experiment, the target named is 3×FLAG-KDM3B. The experiment in a line: affinity purification with mass spectrometry.

B1: HMGB2 (protein, UniProt P17741 1-210)
chain: MGKGDPNKPRGKMSSYAFFVQTCREEHKKKHPDSSVNFAEFSKKCSERWKTMSAKEKSKFEDMAKSDKARYDREMKNYVPPKGDKKGKKKDPNAPKRPPSAFFLFCSEHRPKIKSEHPGLSIGDTAKKLGEMWSEQSAKDKQPYEQKAAKLKEKYEKDIAAYRAKGKGEAGKKGPGRPTGSKKKNEPEDEEEEEEEEEDEDEEEEDEDEE
On to B1, for which the binding result in the experiment with 3×FLAG-KDM3A and in the experiment with 3×FLAG-KDM3B was “binds” each time.

The values above are taken from doi:10.1101/2020.08.16.245639.
